Test results reported in patent US7785835.
No constants are given. Whether binding was seen depends on the method and setting. Binding calls can cover weak binding; strength is not graded here.

The chains behind the UniProt entries cited, without tags or fusion partners. Where a name states a change or a piece, a line headed by the entry shows the natural chain unless it says otherwise. Residues count along the entry.
UniProt P04004, residues 20-478: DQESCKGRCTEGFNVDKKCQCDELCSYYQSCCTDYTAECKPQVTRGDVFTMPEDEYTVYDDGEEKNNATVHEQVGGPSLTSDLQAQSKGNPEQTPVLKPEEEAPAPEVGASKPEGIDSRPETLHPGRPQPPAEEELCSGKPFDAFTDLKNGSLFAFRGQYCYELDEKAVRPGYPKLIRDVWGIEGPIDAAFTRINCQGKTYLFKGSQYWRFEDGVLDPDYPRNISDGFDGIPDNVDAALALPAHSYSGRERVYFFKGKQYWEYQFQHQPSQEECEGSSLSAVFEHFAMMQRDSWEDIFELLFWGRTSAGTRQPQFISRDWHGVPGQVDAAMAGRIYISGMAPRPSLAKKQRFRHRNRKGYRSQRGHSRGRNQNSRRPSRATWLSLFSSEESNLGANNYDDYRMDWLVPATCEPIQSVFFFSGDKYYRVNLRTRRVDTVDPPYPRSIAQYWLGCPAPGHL
UniProt P01344: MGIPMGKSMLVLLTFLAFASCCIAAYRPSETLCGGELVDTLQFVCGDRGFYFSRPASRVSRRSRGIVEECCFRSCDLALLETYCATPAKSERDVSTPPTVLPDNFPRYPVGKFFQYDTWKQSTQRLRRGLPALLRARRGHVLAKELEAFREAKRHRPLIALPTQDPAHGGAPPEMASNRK

Target: vitronectin (UniProt P04004)
Assay: [^125I]-IGF-II on VN-coated wells without IGFBP

Substance: insulin-like growth factor-II (from UniProt P01344) (ligand)
- binding: binds
